The results in this text go back to paper PMC6251808.

No constants are given. Whether binding was seen depends on the method and setting. For some of these results: Binding seen in cells or lysates may run through a third protein. Some binding calls cover weakened binding; strength is not graded here. For some of these results: Tags and fused reporters may be left off the sequences shown.

In assay [1] the target is T1, Wnt1 (construct not stated) (UniProt P04628).
T1 sequence: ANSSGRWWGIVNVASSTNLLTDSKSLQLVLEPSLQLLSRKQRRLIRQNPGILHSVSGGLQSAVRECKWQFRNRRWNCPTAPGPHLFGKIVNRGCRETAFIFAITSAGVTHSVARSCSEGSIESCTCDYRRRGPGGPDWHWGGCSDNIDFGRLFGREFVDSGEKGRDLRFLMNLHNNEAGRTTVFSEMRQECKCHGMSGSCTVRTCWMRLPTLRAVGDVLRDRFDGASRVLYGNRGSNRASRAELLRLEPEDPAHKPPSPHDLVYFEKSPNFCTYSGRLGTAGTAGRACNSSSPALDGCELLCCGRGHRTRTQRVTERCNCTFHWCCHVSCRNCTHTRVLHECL
Nature of the assay: ELISA; increasing concentration of Fc-CD146 on Wnt1; absorption at 450 nm.

In assay [2] the target is T2, Wnt1 (endogenous, human skin fibroblasts) (human (endogenous in human fibroblasts)) (UniProt P04628).
T2 sequence: T1 sequence
Description: co-IP; endogenous proteins in human fibroblast cells; precipitated with anti-Wnt1 or anti-CD146 antibody AA1, mIgG as control.

The target of assay [3] is T3, CD146 (endogenous, human skin fibroblasts) (human (endogenous in human fibroblasts)) (UniProt P43121).
T3 sequence: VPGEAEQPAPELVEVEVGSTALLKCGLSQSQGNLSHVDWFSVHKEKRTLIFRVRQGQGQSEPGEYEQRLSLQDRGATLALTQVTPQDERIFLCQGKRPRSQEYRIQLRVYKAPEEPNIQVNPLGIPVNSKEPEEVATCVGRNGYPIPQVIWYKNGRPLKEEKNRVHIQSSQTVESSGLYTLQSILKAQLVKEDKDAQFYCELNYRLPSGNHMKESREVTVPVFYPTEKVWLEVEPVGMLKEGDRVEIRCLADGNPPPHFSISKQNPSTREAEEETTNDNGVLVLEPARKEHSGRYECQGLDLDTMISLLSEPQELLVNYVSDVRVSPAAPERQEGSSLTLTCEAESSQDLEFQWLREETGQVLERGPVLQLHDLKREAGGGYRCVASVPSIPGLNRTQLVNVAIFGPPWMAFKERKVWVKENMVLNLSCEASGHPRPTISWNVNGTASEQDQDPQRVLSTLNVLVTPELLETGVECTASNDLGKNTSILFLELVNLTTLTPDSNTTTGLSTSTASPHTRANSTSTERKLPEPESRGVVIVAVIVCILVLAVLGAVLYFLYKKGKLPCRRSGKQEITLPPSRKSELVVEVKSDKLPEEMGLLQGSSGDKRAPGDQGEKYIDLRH
Described as above.

Assay [4] has as its target T4, CD146 (construct not stated) (UniProt P43121).
T4 sequence: T3 sequence
Nature of the assay: pull-down; His-tag pull-down of Wnt1 and CD146, with anti-CD146 AA98.

Assay [5] has as its target T4, CD146 (construct not stated). Nature of the assay: co-IP; co-IP of CD146 and Wnt1 with anti-CD146 mAb AA98 or AA1.
Assay [6] has as its target T5, Fc-CD146 (CD146 extracellular domain) (UniProt P43121).
T5 sequence: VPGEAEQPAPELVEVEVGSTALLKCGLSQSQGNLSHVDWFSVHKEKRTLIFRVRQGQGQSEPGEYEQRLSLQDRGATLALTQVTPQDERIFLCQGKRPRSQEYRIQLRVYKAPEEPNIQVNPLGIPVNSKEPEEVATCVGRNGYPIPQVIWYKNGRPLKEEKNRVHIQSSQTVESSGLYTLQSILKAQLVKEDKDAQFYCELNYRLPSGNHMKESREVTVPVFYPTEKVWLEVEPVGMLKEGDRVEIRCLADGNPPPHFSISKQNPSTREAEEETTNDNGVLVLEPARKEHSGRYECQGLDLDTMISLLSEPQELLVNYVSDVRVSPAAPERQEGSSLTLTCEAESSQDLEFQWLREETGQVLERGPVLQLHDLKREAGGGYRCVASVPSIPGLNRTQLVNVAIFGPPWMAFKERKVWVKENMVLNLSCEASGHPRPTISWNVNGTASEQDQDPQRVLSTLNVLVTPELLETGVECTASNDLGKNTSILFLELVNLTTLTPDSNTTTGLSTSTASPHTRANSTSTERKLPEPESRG
Description: pull-down; in vitro Fc pull-down with Fc-CD146 (extracellular domain) or Fc alone and Myc-Wnt1.

Another assay addresses T6, Flag-CD146 (UniProt P43121).
T6 sequence: T3 sequence
Description: co-IP; HEK293 (text: HEK293T) cells co-transfected with Myc-Wnt1 and Flag-CD146; precipitated with anti-Flag mAb M2.

“Fc-CD146 (CD146 extracellular domain) (from UniProt P43121 24-559) (Fc fusion)”: the binding entry in assay [1] is given as “binds”.

With “CD146 (endogenous, human skin fibroblasts) (from UniProt P43121 24-646) (receptor)”, in assay [2], the binding entry was “binds”.

B1: Wnt1 (endogenous, human skin fibroblasts) (ligand, UniProt P04628 28-370)
chain: T1 sequence
As to B1, the binding result in assay [3] is on record as “binds”.

B2: Wnt1 (construct not stated) (ligand, UniProt P04628 28-370)
chain: T1 sequence
Regarding B2, the binding entry in assay [4] and in assay [5] was “binds” throughout.

B3: Myc-Wnt1 (ligand, UniProt P04628 28-370)
chain: T1 sequence
Turning to B3, the binding result (in assay [6]; in the assay with Flag-CD146) was “binds” in each case.
